Source: the supplement of paper PMC12009310
Counter-ions that a name gives are not always drawn. ± gives the standard deviation of the averaged measurements. Some of the results follow. Part of the spread comes from offsets between plates or batches.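 The cells are a mouse kidney inner medullary collecting duct line, silenced either for the ciliary gene Rpgrip1l or with a non-targeting control siRNA.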

What was measured:
mIMCD3 [1] = assay: robust z score of cell number vs plate controls; higher = more cells (less cytotoxic); conditions: 10 µM, 48 h
mIMCD3 [2] = assay: robust z score of cilia incidence (% cells with single cilium) vs plate controls; higher = more ciliated cells; conditions: 10 µM; 48 h; siRNA: siScr
mIMCD3 [3] = assay: robust z score of cilia incidence (% cells with single cilium) vs plate controls; higher = more ciliated cells (rescue of cilia loss); conditions: 10 µM; 48 h; siRNA: siRpgrip1l

Compound	robust z score of cell number (mIMCD3 [1]; siRNA: siRpgrip1l)	robust z score of cell number (mIMCD3 [1]; siRNA: siScr)	robust z score of cilia incidence (mIMCD3 [2])	robust z score of cilia incidence (mIMCD3 [3])
CCCCCCCCCCC(C)(C)C(=O)Nc1c(OC)cc(OC)cc1OC	-39 ± 24	-52 ± 28	-34.9 ± 16	-58 ± 6.5
Cc1ccc(C(=O)Nc2ccc(S(=O)(=O)O)c3cc(S(=O)(=O)O)cc(S(=O)(=O)O)c23)cc1NC(=O)c1cccc(NC(=O)Nc2cccc(C(=O)Nc3cc(C(=O)Nc4ccc(S(=O)(=O)O)c5cc(S(=O)(=O)O)cc(S(=O)(=O)O)c45)ccc3C)c2)c1 [Suramin hexasodium salt]	-35.9 ± 39	-4.29 ± 2.1	-0.589 ± 2	-165 ± 51
CNC(=C[N+](=O)[O-])NCCSCc1ccc(CN(C)C)o1 [Ranitidine hydrochloride]	4.13 ± 8.7	2.41 ± 4.4	-3.86 ± 0.91	-28.2 ± 23
NS(=O)(=O)c1nn2cc(-c3ccccc3)nc2s1	-5.56 ± 6	-64.2 ± 68	-6.23 ± 6.2	-18.01 ± 0.047
CC(Cc1ccc(O)c(O)c1)(NN)C(=O)O [(S)-(-)-Carbidopa]	-0.664 ± 1.7	-7.41 ± 9.1	1.64 ± 1.7	-1.89 ± 3.8
CCCCc1nn(-c2ccccc2C(F)(F)F)c(=O)n1Cc1ccc(-c2ccccc2S(=O)(=O)NC(=O)c2sccc2C)cc1	-28.3 ± 8.1	-129 ± 97	-8.93 ± 2.4	-17.4 ± 4
O=C(O)c1ccccc1Nc1cccc(OCc2ccc3ccccc3n2)c1 [SR 2640 hydrochloride]	-44.7 ± 41	-44.7 ± 29	-120 ± 81	-91.6 ± 70
CC(C)[C@H](CO)Nc1nc(Nc2cccc(Cl)c2)c2ncn(C(C)C)c2n1 [Purvalanol A]	-185 ± 210	-43 ± 9.2	-13.4 ± 9.6	-297 ± 230
COc1ccc(-c2oc3cc(OC)ccc3c2C(=O)c2ccc(C#N)cc2)cc1	-6.7 ± 4	-0.223 ± 1.9	-2.31 ± 2.6	-4.41 ± 2.3

For reference, part of the list above.
Compound	robust z score of cell number (mIMCD3 [1]; siRNA: siRpgrip1l)	robust z score of cell number (mIMCD3 [1]; siRNA: siScr)	robust z score of cilia incidence (mIMCD3 [2])	robust z score of cilia incidence (mIMCD3 [3])
CCCCc1nn(-c2ccccc2C(F)(F)F)c(=O)n1Cc1ccc(-c2ccccc2S(=O)(=O)NC(=O)c2sccc2C)cc1	-28.3 ± 8.1	-129 ± 97	-8.93 ± 2.4	-17.4 ± 4
O=C(O)c1ccccc1Nc1cccc(OCc2ccc3ccccc3n2)c1 [SR 2640 hydrochloride]	-44.7 ± 41	-44.7 ± 29	-120 ± 81	-91.6 ± 70
